The values that follow come from PubChem BioAssay AID2685 (National Center for Advancing Translational Sciences (NCATS), 2010).

The experiment in a line: qHTS Assay for Lipid Storage Modulators in Drosophila S3 Cells.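 As to cell number change: cells counted by Cell Tracker Red CMTPX staining in the red channel.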 To be noted: BODIPY lipid droplet fluorescence, 18-24 h; for cell number change: measured here: cell count max response, cells fed with added oleic acid. The procedure, abridged: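 Drosophila S3 cells loaded with oleic acid (400 uM, as added) and compounds at several concentrations; lipid droplets imaged by 488-nm laser-scanning cytometry, 500–530 nm intensity and object ratio to cell channel. Percent activity normalized to 20 uM Triacsin C.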
Background: Quantitative high-throughput screening tests each substance at several concentrations.

The mark [1] stands for this setting: measured here: lipid fluorescence (Fed channel) AC50, cells fed with added oleic acid.
Where [2] appears, read: measured here: cell number channel AC50, cells fed with added oleic acid.

The other results are listed elsewhere or left out. Shown are side measurements of this screen, not its main read-out; they come without a call. The list favours compounds with an active or inconclusive main result. Potencies come from curve fits of mixed quality, noted in brackets.

The term AC50 denotes the concentration at which the activity in the assay is half-maximal. A lower AC50 goes with activity at low concentration. Take `CCN(CC)C(=O)COc1ccc(-c2nnc(Nc3ccc(OC)c(C(=O)NC)c3)c3ccccc23)cc1`: the cell number change was -17.5%. For the same molecule, the AC50 under setting [1] is 32.6 µM [falling, single point].

For the molecule `COc1cc2cc(CN(CCc3ccccc3C)C(=S)NCCCN(C)C)c(=O)[nH]c2cc1OC`, the cell number change is -17.9%. Further, under setting [1], the AC50 is 14.6 µM [falling, single point].

For the molecule `Cn1c(N)c(C(=O)COC(=O)COc2ccccc2Cl)c(=O)n(C)c1=O`, the cell number change was 175%. For the same molecule, under setting [2], the AC50 is 5.17 µM [rising, full curve].

For the molecule `CN1C(CC(=O)Nc2ccc(Cl)cc2Cl)c2ccccc2CC1(C)C` (stereo not given), the cell number change is -53.3%. The AC50 under setting [2] is 18.4 µM [falling, single point]. Further, under setting [1], the AC50 is 32.6 µM [falling, single point].

As to `Cc1ccccc1OC(=O)Cn1c(C(F)(F)F)nc2ccccc21`, the cell number change is -19.2%.

In the case of `NC(=S)Cc1nc(-c2ccccc2)cs1`, the cell number change was determined as 14.2%. Further, under setting [1], the AC50 is 23.1 µM [falling, partial curve].

Regarding `CCOc1ccc(NC(=O)CCC(=O)c2ccc(OC)cc2)cc1`, the cell number change was -8.52%. Moreover, the AC50 under setting [1] was 29.1 µM [rising, single point].

In the case of `C=C(C)C1CC=C(CN2CCC(C(=O)OCC)CC2)CC1` (stereo not given), the cell number change came out at 1.82%. In addition, the half-maximal activity concentration (AC50) under setting [1] is 29.1 µM [falling, single point].

Turning to `COc1ccc(C(=O)N/C(=C/c2ccco2)C(=O)NC2CCS(=O)(=O)C2)cc1` (stereo not given), under setting [2], the half-maximal activity concentration (AC50) is 0.58 µM [rising, single point].

Consider `COc1ccc(NC(=O)CCc2nc3ccccc3[nH]2)cc1`, for which the cell number change is 33.1%. The AC50 under setting [2] was 29.1 µM [rising, single point]. For the same molecule, the AC50 under setting [1] was 3.66 µM [rising, full curve].

As to `CCOC(=O)N1CCC(NC(=S)Nc2ccc3nc(N4CCN(C)CC4)cc(C)c3c2)CC1`, the cell number change was 22.2%. Also, the AC50 under setting [2] was 2.59 µM [rising, single point]. Also, the concentration at half-maximal activity (AC50) under setting [1] is 6.51 µM [rising, single point].

Regarding `O=c1cc(-c2ccc([N+](=O)[O-])cc2)nc2cc(-c3ccc(F)cc3)[nH]n12`, the cell number change is -35.1%. Besides, the AC50 under setting [2] was 0.00461 µM [falling, full curve, poor fit]. Moreover, the half-maximal activity concentration (AC50) under setting [1] is 20.6 µM [rising, single point].

As to `O=S(=O)(c1ccc(Cl)c(C(F)(F)F)c1)N1CCN(c2ccccn2)CC1`, the cell number change was -14.9%. In addition, the half-maximal activity concentration (AC50) under setting [2] is 0.326 µM [rising, full curve].

For the molecule `CCOC(=O)C(CCC#N)(CCC#N)C(=O)OCC`, the cell number change is -14.8%. Moreover, under setting [2], the concentration at half-maximal activity (AC50) is 0.651 µM [falling, full curve, poor fit]. For the same molecule, the AC50 under setting [1] is 2.59 µM [falling, full curve].

Regarding `O=C(CSc1ccc(Cl)cc1)Nc1ccccc1N1CCN(C(=O)c2ccccc2)CC1`, the cell number change was 0.417%.

In the case of `COc1ccc(CCC(=O)Nc2cccc(S(=O)(=O)N3CCCCCC3)c2)cc1`, the cell number change turned out to be 4.02%.

Regarding `COc1ccc(OC)c(C(C(=O)NCc2ccco2)N(C(=O)Cn2nnc3ccccc32)C2CC2)c1` (stereo not given), the cell number change is -4.19%. For the same molecule, the AC50 under setting [1] was 0.461 µM [rising, full curve, poor fit].

With `CCOc1ccc(NC(=O)CCNS(=O)(=O)c2cccc3nsnc23)cc1`, the cell number change was determined as 15.4%. Further, the AC50 under setting [1] is 8.2 µM [rising, partial curve, poor fit].

`Cc1oc(C(C)(C)C)cc1C(=O)Nc1cccc(C(=O)O)c1`: the cell number change was -13.9%. The concentration at half-maximal activity (AC50) under setting [1] was 0.164 µM [falling, full curve].

With `CCc1c(C(C)S(=O)(=O)c2ccccc2)[nH]c(=O)n1CC` (stereo not given), the cell number change was -30.6%. Further, under setting [2], the AC50 was 0.651 µM [falling, full curve, poor fit].

Turning to `O=C(NC(=S)Nc1ccc2[nH]c(=O)[nH]c2c1)c1cccc(F)c1`, the cell number change was 32.8%. Besides, the AC50 under setting [1] is 6.51 µM [rising, single point].

As to `CCOc1ccc(NS(=O)(=O)c2cc(OCC(N)=O)c(C)cc2Cl)cc1`, the cell number change is 34.3%. Further, the concentration at half-maximal activity (AC50) under setting [2] is 2.91 µM [rising, full curve, poor fit].

Consider `CCN1CCc2c(OCC(=O)Nc3cccc(C)c3C)cccc2C1=O`, for which the cell number change stood at 21.2%.

As for `O=C(Nc1ccc2c(c1)OCO2)c1cc(-c2cccc(O)c2)on1`, the cell number change amounted to 15.4%. The AC50 under setting [1] was 4.61 µM [rising, single point].

In the case of `Cc1csc(NC(=O)CSc2nnc(-c3cccnc3)o2)n1`, the cell number change is 28.1%.

With `Cc1ccc(S(=O)(=O)Nc2cccc(C(=O)NCC(c3ccco3)N3CCCC3)c2)cc1F` (stereo not given), the cell number change amounted to 4.61%. The AC50 under setting [1] was 23.1 µM [rising, single point].

As for `CCN(C(=O)CN1CCN(Cc2ccccc2)CC1)c1c(N)n(Cc2ccccc2)c(=O)[nH]c1=O`, the cell number change is -26.1%.

As to `CCN1C(=O)[C@H]2[C@@H](c3ccc(OC)cc3)N3C(=O)CN(Cc4ccccc4)C(=O)[C@@]3(Cc3ccccc3)[C@H]2C1=O`, the cell number change stood at 2.4%. Besides, the half-maximal activity concentration (AC50) under setting [1] was 0.184 µM [falling, full curve, poor fit].

Regarding `COc1ccc(-c2csc(NC(=O)C3=COCCO3)n2)cc1OC`, the cell number change amounted to 76.1%. Further, under setting [2], the concentration at half-maximal activity (AC50) is 9.2 µM [rising, partial curve].

Regarding `CC(C)(/C=N/O)/[N+]([O-])=C/c1ccco1`, the cell number change is -26.2%. In addition, the AC50 under setting [2] was 0.651 µM [falling, full curve, poor fit]. In addition, the AC50 under setting [1] was 4.61 µM [falling, full curve].

`COc1ccccc1C(=O)N1C(CC(=O)Nc2cc(Cl)ccc2C)C(=O)NC2CCCCC21` (stereo not given): the cell number change was -0.0804%.

Regarding `COc1c(C=O)c(CCN(C)C(=O)c2ccc(F)cc2)cc2c1OCO2`, the AC50 under setting [1] was 29.1 µM [rising, single point].

As for `Cc1nn(CC(=O)N(C)c2c(N)n(Cc3ccccc3)c(=O)[nH]c2=O)c(C)c1[N+](=O)[O-]`, the cell number change was 6.61%. Moreover, the AC50 under setting [1] was 0.00461 µM [rising, full curve, poor fit].

For `CCOC(=O)c1ccccc1NC(=O)C1COc2ccccc2O1` (stereo not given), the cell number change was -25.9%.

For `COc1cc(CO)c(Br)cc1OCC(N)=O`, the cell number change was -47.4%. Moreover, under setting [2], the AC50 is 29.1 µM [falling, single point]. In addition, the concentration at half-maximal activity (AC50) under setting [1] was 4.11 µM [falling, partial curve].

For `O=C(OCC(=O)c1c[nH]c2ccccc12)C1=COCCO1`, the AC50 under setting [2] is 0.00461 µM [rising, full curve, poor fit].

In the case of `CCOc1ccc(N2C(=O)C3C(C2=O)C3(c2ccccc2)c2ccccc2)cc1` (stereo not given), the cell number change is -35.6%. The AC50 under setting [2] is 16.4 µM [falling, partial curve]. In addition, under setting [1], the AC50 was 13 µM [falling, partial curve, poor fit].

`Cc1cc2ncc(C(=O)N=CN(C)C)cn2n1`: the cell number change is 11.5%.

Consider `CC1(C)CC(=O)c2c(O)cc(OCC(=O)N3CCN(c4ccccc4)CC3)cc2O1`, for which the cell number change came to 8.09%. Moreover, the half-maximal activity concentration (AC50) under setting [1] was 29.1 µM [falling, single point].

Take `CCN(CC)Cc1cc(CC(C(N)=O)C(N)=O)ccc1OC`: the cell number change came to 6.14%. Moreover, under setting [1], the concentration at half-maximal activity (AC50) is 0.00461 µM [falling, full curve, poor fit].

Consider `CCCCC(=O)NC(=S)Nc1cc([N+](=O)[O-])ccc1OC`, for which the AC50 under setting [1] was 3.26 µM [rising, partial curve, poor fit].

Turning to `O=C(CSc1ncn[nH]1)Nc1c(F)cc(F)cc1Br`, the cell number change came out at 26.4%.

With `CCN(CC(=O)Nc1cc(Cl)ccc1C)C(=O)CCOc1ccccc1C`, the cell number change was -13.9%.

`COc1ccc(C(CNC(=O)c2ccc(-c3nc4ccccc4s3)o2)N2CCCC2)cc1` (stereo not given): the cell number change was 3.3%. Besides, the AC50 under setting [1] was 1.84 µM [rising, partial curve, poor fit].

As to `COc1ccc(-c2cc(C(=O)N3CCCc4ccccc43)no2)cc1`, the cell number change was -0.527%. Besides, the AC50 under setting [1] is 0.0461 µM [rising, full curve, poor fit].

As for `COc1ccc2[nH]cc(CCn3ccc(O)c(C/C=C/c4ccccc4)c3=O)c2c1`, the cell number change was -65.5%. For the same molecule, the AC50 under setting [2] was 5.17 µM [falling, partial curve]. The AC50 under setting [1] is 2.91 µM [falling, full curve].

In the case of `Brc1ccc(-n2cc(-c3ccccc3)c3c(NN4CCOCC4)ncnc32)cc1`, the cell number change amounted to 19.9%. Further, the half-maximal activity concentration (AC50) under setting [1] is 23.1 µM [rising, partial curve, poor fit].

Take `COc1ccc(/C=C/C(=O)c2cc(F)ccc2OC(=O)c2ccc(OC)c(OC)c2)cc1OC`: the cell number change stood at 0.271%. In addition, the AC50 under setting [1] is 29.1 µM [falling, single point].

With `COC(=O)CN1C(=O)C(O)=C(C(C)=O)C1c1ccc([N+](=O)[O-])cc1` (stereo not given), the cell number change is -25.2%. For the same molecule, the concentration at half-maximal activity (AC50) under setting [2] was 0.116 µM [falling, full curve]. Further, the concentration at half-maximal activity (AC50) under setting [1] is 25.9 µM [falling, single point].

With `COc1ccc(Cl)cc1S(=O)(=O)N1CCCC1`, the cell number change was -32.6%. Under setting [2], the half-maximal activity concentration (AC50) was 2.06 µM [falling, full curve]. Moreover, the AC50 under setting [1] is 0.0291 µM [rising, full curve, poor fit].

With `Cc1ccc(CNC(=O)CN2C(C)CCCC2C)cc1` (stereo not given), the cell number change was 10.3%. For the same molecule, the AC50 under setting [2] was 6.51 µM [rising, single point].

As for `N/C(=N\N=C\c1ccc2c(c1)OCO2)SC1CC(=O)N(c2ccc(C(=O)O)cc2)C1=O` (stereo not given), the cell number change is -11.9%.

With `Cc1cccc(NC(=S)NC(=O)CCc2ccccc2)c1C`, the cell number change is -8.5%. For the same molecule, the AC50 under setting [1] is 29.1 µM [rising, single point].

With `CC(=O)c1ccccc1OCCOc1ccccc1C(C)=O`, the cell number change was -28.6%. The AC50 under setting [1] is 4.61 µM [falling, partial curve, poor fit].

Consider `COc1ccc(N2CCN(C(=O)c3ccc4c(=O)n5c(nc4c3)CCCCC5)CC2)cc1`, for which the cell number change worked out at 15.7%. In addition, the concentration at half-maximal activity (AC50) under setting [1] is 29.1 µM [rising, single point].

In the case of `O=C(NC1CCCC1)c1cc(-c2ccccc2O)on1`, the cell number change turned out to be 23.8%.

Consider `CCCc1ccc(-c2ccc(/C=C/C(=O)O)cc2)nc1`, for which the cell number change was -7.09%. Moreover, the AC50 under setting [2] was 5.17 µM [rising, single point]. The AC50 under setting [1] was 3.26 µM [rising, partial curve].

In the case of `O=C(Nc1cccc([N+](=O)[O-])c1)Nc1ccc(Cl)cn1`, the cell number change was 23.7%. For the same molecule, the concentration at half-maximal activity (AC50) under setting [1] is 10.3 µM [rising, partial curve].

For the molecule `C=CCOc1ccc2c(c1)C(=NO)c1cc(OCC=C)ccc1-2`, the cell number change was -62.1%. Moreover, under setting [2], the AC50 is 4.11 µM [falling, single point]. Also, the half-maximal activity concentration (AC50) under setting [1] was 29.1 µM [falling, single point].

As for `Cc1ccc(S(=O)(=O)N2CCN(Cc3ccco3)CC2)c(C)c1`, the cell number change came to 0.348%.
